Experimental data: PubChem BioAssay AID720505 (Drosophila RNAi Screening Center, 2013)

Aim: 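Genes needed for store-operated calcium entry in fly cells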 (primary screen)
Cell system: Drosophila S2R+ cells
Reagent: long dsRNA against Drosophila genes
Conditions: thapsigargin (2 µM) in calcium-free buffer to empty internal stores, then 2 mM calcium added back
Read-out: 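Stores emptied by 2 µM thapsigargin without calcium, then 2 mM calcium re-added; fluo-4 fluorescence followed by FLIPR in 384-well plates, per-well averaged endpoint, raw; two screen passes, some wells retested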
Direction: calcium signal: higher = more calcium entry after store depletion
Active means: 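Knock-downs counted as hits when calcium entry dropped relative to STIM1 positive and Rho1 negative controls present on each plate; roughly 1500 genes called, with reductions of differing size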
Meaning of the calls: active = called as lowering calcium entry; inactive = not called
The deposit covers about 20,000 reagents; below is a random part of those that have a named target and a result. Over the whole deposit, about 2,100 (10%) are marked active. 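Raw plate signals without normalisation; calls rest on control-based scores that were not deposited; replicate 2 separates called from uncalled poorly.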 The numbers tell different reagents against one gene apart. A plus sign joins genes that one reagent is predicted to hit. Reagent sequences are not shown. Not given: the amount of reagent, the time to read-out.

Gene	dsRNA no.	calcium signal, replicate 1	calcium signal, replicate 2	outcome
Pburs	1	79	113	active
CG11379	1	82.1	115	inactive
sl	1	156	113	inactive
sl	2	142	125	inactive
CG14913	1	171	155	inactive
Ids	1	62.5	98.5	inactive
obst-J	1	99.2	95.2	inactive
achi	1	135	160	inactive
PCID2	1	109	142	inactive
CG32081	1	50.1	99.5	inactive
RpL10	1	87.4	79.7	active
Myo10A	1	71	92.6	active
Myo10A	2	63.2	77.4	active
Myo10A	3	139	86.5	inactive
Myo10A	4	96.8	111	inactive
CG43386	1	135	88.3	inactive
CG8635	1	198	150	inactive
Jon65Aiii	1	94.1	74.8	inactive
CG6283	1	138	137	inactive
lectin-24Db	1	130	242	inactive
Oatp74D	1	156	109	inactive
CG5973	1	139	241	inactive
Eig71Eh	1	124	185	inactive
CG13248	1	81.2	129	inactive
Mettl3	1	267	181	inactive
meigo	1	96	186	inactive
CG13713	1	78.3	50.2	inactive

Just “calcium signal, replicate 2” (12 entries from above):
Myo10A #1: 92.6
Myo10A #2: 77.4
Myo10A #3: 86.5
Myo10A #4: 111
CG43386: 88.3
CG8635: 150
Jon65Aiii: 74.8
CG6283: 137
lectin-24Db: 242
Oatp74D: 109
CG5973: 241
Eig71Eh: 185

The listing continues:
Gene	dsRNA no.	calcium signal, replicate 1	calcium signal, replicate 2	outcome
CG18581	1	91.2	155	inactive
Obp58b	1	156	223	inactive
Tes	1	127	143	inactive
CG34299	1			inactive
CG13775	1	170	104	inactive
Septin1	1	101	109	inactive
tay	1	139	129	inactive
Cp7Fa	1	200	89.3	inactive
Cp7Fa	2	220	110	inactive
GlyRS	1	169	110	inactive
CG7457	1	71.2	85.9	inactive
brk	1	197	120	inactive
brk	2	102	152	inactive
Tim9a	1	138	108	inactive
CG11699	1	98	125	inactive
Cyp4p1	1	164	198	inactive
CG17032	1	107	148	inactive
Archease	1	218	199	inactive
Trmt6	1	99.4	99.9	inactive
dbo	1	115	221	inactive
Strip	1	76.7	111	inactive
CG12376	1	200	149	inactive
Atx-1	1	227	160	inactive
Kr	1	103	116	inactive
egr	1	132	108	inactive
COX6AL2 + Ir75d	1	75.4	115	inactive
Eig71Ea	1	69.5	165	inactive
fs(1)K10	1	85	95.9	inactive
aux	1	63.7	127	active
not	1	99.2	127	inactive
scaf	1	127	97	inactive
Ptp4E	1	104	84.5	inactive
Prps	1	55.5	109	active
Prps	2	116	81.3	inactive
Caf1-105	1	138	128	inactive
CG10576	1	74.5	106	active
CG1545	1	122	90.5	inactive
CG15728	1	98.2	102	inactive
CG15728	2	74	89.4	inactive
FASN3	1	136	80	inactive
AOX4	1	117	114	inactive
CG5776	1	95.8	140	inactive
CG12009	1	86.2	95.5	inactive
Usp16-45	1	162	74	inactive
CG3448	1	87.9	93	inactive
Sardh	1	188	147	inactive
rt	1	108	77.9	inactive
CG18536	1	187	115	inactive
CG14445	1	296	79.3	inactive
prage	1	88.3	174	inactive
prage	2	62.3	84.5	active
prage	3	106	122	inactive
prage	4	132	158	inactive
FANCI	1	106	90.2	inactive
Pus10	1	87.3	128	inactive
Jhe	1	122	141	inactive
